PubChem BioAssay AID2685 (National Center for Advancing Translational Sciences (NCATS), 2010)
The list shows a part of the results. The main result of the screen is listed elsewhere. These columns were measured beside it and carry no call. The list favours compounds with an active or inconclusive main result. Potencies come from curve fits of mixed quality, noted in brackets.

Experiment: qHTS Assay for Lipid Storage Modulators in Drosophila S3 Cells;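 for cell number change: cells counted by Cell Tracker Red CMTPX staining in the red channel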
Conditions: BODIPY lipid droplet fluorescence, 18-24 h; for cell number change: measured here: cell count max response, cells fed with added oleic acid
How it was run: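 Drosophila S3 cells loaded with oleic acid (400 uM, as added) and compounds at several concentrations; lipid droplets imaged by 488-nm laser-scanning cytometry, 500–530 nm intensity and object ratio to cell channel. Percent activity normalized to 20 uM Triacsin C.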

[1] = measured here: cell number channel AC50, cells fed with added oleic acid
[2] = measured here: lipid fluorescence (Fed channel) AC50, cells fed with added oleic acid

Compound | cell number change | AC50 [1] | AC50 [2]
Cc1ccc(S(=O)(=O)Nc2ccc(-c3csc(-c4ccccc4)n3)cc2)cc1 | -50.9% | 16.4 µM [falling, single point] | 2.06 µM [falling, partial curve]
CCOC(=O)C1CCN(C(=O)C(C)Oc2ccc(Br)cc2)CC1 (stereo not given) | -26.1% |  | 16.4 µM [rising, partial curve]
CCc1c(C)nc(N2CCOCC2)[nH]c1=O |  | 4.61 µM [falling, partial curve] | 4.61 µM [falling, partial curve]
COc1nc(Nc2ccc(C(C)=O)cc2)nc(OC)n1 |  |  | 0.58 µM [rising, single point]
CNCCCCOc1ccc(C(C)(C)C)cc1Cl | -20.8% |  | 
COC(=O)[C@@]1(Cc2ccc(OC)cc2)[C@H]2c3cc(C(=O)N4CCCC4)n(CCN4CCNC4=O)c3C[C@H]2CN1C(=O)c1ccccc1 | 17.5% |  | 20.6 µM [rising, single point]
COCC(C)n1c(SCc2ccc(C(=O)OC)cc2)nc2ccccc2c1=O (stereo not given) | -6.31% |  | 0.58 µM [rising, single point]
Cc1ccc(C)c(CSCC(=O)NCc2cccs2)c1 | 1.46% | 0.0259 µM [rising, full curve, poor fit] | 0.058 µM [rising, full curve, poor fit]
O=c1c2ccccc2[nH]c(=S)n1Cc1ccc2c(c1)OCO2 | -33.1% | 25.9 µM [falling, single point] | 25.9 µM [falling, partial curve]
CC(C)Cn1c(N)c(C(=O)COC(=O)c2ccc3ccccc3n2)c(=O)n(C)c1=O | -11.2% |  | 
CCNc1ccc(Br)cc(C(=O)/C=C/c2ccc3c(c2)OCO3)c1=O | 6.21% |  | 0.58 µM [rising, partial curve, poor fit]
Cc1cc(=O)oc2cc(NC(=O)c3cc4ccccc4o3)ccc12 | 11.1% |  | 6.51 µM [rising, partial curve, poor fit]
CC1(c2ccc(Cl)cc2)NC(=O)N(CN2CCOCC2)C1=O (stereo not given) | 14.5% |  | 29.1 µM [rising, single point]
CCCCCSc1nnc2c(n1)OC(C)N(C(C)=O)c1ccccc1-2 (stereo not given) | 30.6% | 20.6 µM [rising, single point] | 1.03 µM [rising, full curve, poor fit]
Cc1cccc(-n2c(SCC(=O)NCc3ccc4c(c3)OCO4)nc3ccccc3c2=O)c1 | 37.3% | 0.731 µM [rising, full curve] | 0.92 µM [rising, full curve]
CCOC(=O)COc1ccc(Br)cc1/C=C1\SC(N)=NC1=O |  |  | 6.51 µM [falling, partial curve]
COc1ccccc1OCCCOc1c(Cl)cc(C)cc1Cl | 4.89% | 6.51 µM [rising, single point] | 16.4 µM [rising, partial curve]
COC(=O)C(NC(=O)CNS(=O)(=O)c1ccc(Br)cc1)c1ccccc1 (stereo not given) | 44.2% |  | 2.31 µM [rising, full curve]
O=C(N/C=C/c1ccccc1)c1ccccc1 | 0.858% |  | 0.092 µM [falling, full curve, poor fit]
O=S(=O)(CCSc1ccccn1)c1nc2ccccc2s1 |  | 6.51 µM [falling, single point] | 

Compound | cell number change | AC50 [1] | AC50 [2]
Cc1ccc(Nc2nc(CSc3nnc(-c4ccc(F)cc4)n3C)cs2)cc1 | 38% | 4.11 µM [rising, full curve, poor fit] | 5.8 µM [rising, full curve]
CC1CCCN(C(=O)C2CCN(CC3CC=CCC3)CC2)C1 (stereo not given) | -4.39% |  | 29.1 µM [rising, single point]
CCCn1c(C)cs/c1=N\C(=S)Nc1ccccc1 | 2.97% |  | 0.651 µM [rising, partial curve, poor fit]
O=C(CSc1nnc(-c2ccco2)o1)NCC(=O)c1ccccc1 | -10% |  | 20.6 µM [rising, single point]
Cc1ccc(-c2cc(C(=O)N/N=C/c3ccc(Cl)cc3)n[nH]2)o1 | 2.38% |  | 
CC1=NN(C(=O)c2csc(C)c2)C(O)(C(F)(F)F)C1 (stereo not given) | -8.38% |  | 
CCOc1ccc(NC(=O)c2ccc(N3CC4CC(C3)c3cccc(=O)n3C4)c(NC(=O)c3ccncc3)c2)cc1 (stereo not given) | 22.6% |  | 
CC(=O)c1ccc(Cc2ccccc2)cc1 |  |  | 6.51 µM [falling, single point]
CSc1ccc(CN(C)C(=O)C(c2ccccc2)c2ccccc2)cc1 | 4.17% |  | 
CCCCn1c2c(c(=O)n(C)c1=O)C(CC(=O)OCC(=O)Nc1cccc(C(F)(F)F)c1)C(=O)N2 (stereo not given) | -5.58% |  | 6.51 µM [falling, partial curve]
Cc1ccsc1CN(C)CC(=O)Nc1cccc(S(=O)(=O)N(C)c2ccccc2)c1 | 123% | 6.51 µM [rising, partial curve] | 
CCOc1ccc(/C=N/NC(=O)c2[nH]ncc2Br)c(O)c1 | -33.1% | 18.4 µM [falling, single point] | 20.6 µM [falling, partial curve]
COc1ccccc1CNc1nc2nc(C)cc(=O)n2[nH]1 | -12.3% |  | 
Cc1ccc(CNC(=O)COc2ccc(S(=O)(=O)NC(C)C)cc2)cc1 | 98% | 14.6 µM [rising, partial curve] | 2.91 µM [rising, partial curve]
c1ccc(-n2ncc3c(N4CCCCC4)ncnc32)cc1 |  | 0.291 µM [rising, partial curve] | 16.4 µM [rising, partial curve]
Cc1cc(C)cc(CSCC(=O)N/N=C/c2ccc(OCC(=O)NCc3ccco3)cc2)c1 | -7.18% |  | 
CCc1ccc2c(COC(=O)c3n[nH]c4ccccc34)cc(=O)oc2c1 | -19.6% |  | 
CCc1ccc2nc(SCC(=O)Nc3ccccc3N3CCOCC3)c(C#N)cc2c1 | -15.6% |  | 3.26 µM [falling, full curve, poor fit]
CCc1ccccc1S(=O)(=O)Cc1ccc(C(=O)NC2CCCC2)o1 | -18.6% |  | 
Cc1cc(Cl)ccc1OCC(=O)n1cc(C(=O)c2cc(Cl)ccc2O)cn1 | -17.8% |  | 0.116 µM [falling, partial curve, poor fit]

Compound | cell number change | AC50 [1] | AC50 [2]
O=C(CCCn1c(=S)[nH]c2cc3c(cc2c1=O)OCO3)N1CCN(c2ccccc2)CC1 | -11.7% | 0.082 µM [rising, full curve, poor fit] | 
COc1cccc(-c2nn(C)c3sc(C(=O)Nc4ccc5c(c4)OCCO5)cc23)c1 | -30.4% | 29.1 µM [falling, single point] | 
O=C(CN(C(=O)CNC(=O)c1cccs1)c1cccc(F)c1)NC1CCCC1 | 16.7% | 0.116 µM [rising, full curve, poor fit] | 
O=C(CN1C(=O)C2CCCCC2C1=O)Nc1cc(C(F)(F)F)ccc1N1CCCC1 (stereo not given) | 29.4% |  | 23.1 µM [rising, single point]
CCc1c(O)nc(SCC(=O)N2CCc3cc(OC)c(OC)cc3[C@@H]2C)[nH]c1=O | 0.135% |  | 0.517 µM [rising, full curve]
COC(=O)c1cc(NC(=O)Cc2ccc(OC)cc2)cc(C(=O)OC)c1 | 34.2% | 0.13 µM [rising, full curve, poor fit] | 
CCNc1nc(N)nc(Oc2ccc(OCc3ccccc3)nn2)n1 | 20.9% |  | 29.1 µM [rising, single point]
Cc1cccc(N2CCN(C(C)C(=O)N3CCc4ccccc43)CC2)c1C (stereo not given) | 34.3% | 29.1 µM [rising, single point] | 
Cc1nc(C)c(C(=O)O)s1 | 43.1% | 0.184 µM [rising, full curve] | 
COC(=O)C1=C(C(=O)c2ccc(C)cc2)C(c2ccc(OC)c(OC)c2)n2nnnc2N1 (stereo not given) |  | 0.92 µM [falling, full curve] | 0.461 µM [falling, full curve]
O=C(NCCCn1ccnc1)C(=O)NCC1OCCCN1S(=O)(=O)c1ccc(Cl)cc1 (stereo not given) |  | 6.51 µM [falling, single point] | 32.6 µM [rising, single point]
CC1CN(S(=O)(=O)c2ccc(F)cc2)CN1C(=O)N1CCOCC1 (stereo not given) | -22.2% |  | 29.1 µM [rising, single point]
CC(NS(=O)(=O)c1ccc([N+](=O)[O-])cc1)C(=O)NN (stereo not given) |  | 6.51 µM [rising, single point] | 6.51 µM [rising, single point]
CCCCn1nnnc1SCC(=O)Nc1ccc2c(c1)OCO2 | 3.85% | 0.082 µM [rising, full curve, poor fit] | 3.26 µM [rising, full curve]
O=C1CN2C(=Nc3ccc(Cl)cc3C2c2ccccc2)CN1 (stereo not given) | 101% | 16.4 µM [rising, partial curve] | 16.4 µM [rising, partial curve]
CC(C)=NNc1cc([N+](=O)[O-])cc2c1C(=O)N(C)S2=O (stereo not given) | -30.9% | 0.461 µM [falling, full curve] | 0.731 µM [falling, full curve]
Cc1ccc(C)c(N(CC(=O)NC2CCCC2)S(=O)(=O)c2ccccc2)c1 | -19.4% |  | 
COC(=O)CSC(=S)N1C(C)CCCC1C (stereo not given) | 2.32% | 6.51 µM [falling, single point] | 6.51 µM [falling, single point]
COc1cc(/C=N/Nc2ccc(Cl)c(C(=O)O)c2)ccc1OC(=O)c1ccccc1F | 7.66% |  | 

Some entries already given, showing only cell number change and AC50 [2].
Compound	cell number change	AC50 [2]
COC(=O)C1=C(C(=O)c2ccc(C)cc2)C(c2ccc(OC)c(OC)c2)n2nnnc2N1 (stereo not given)		0.461 µM [falling, full curve]
O=C(NCCCn1ccnc1)C(=O)NCC1OCCCN1S(=O)(=O)c1ccc(Cl)cc1 (stereo not given)		32.6 µM [rising, single point]
CC1CN(S(=O)(=O)c2ccc(F)cc2)CN1C(=O)N1CCOCC1 (stereo not given)	-22.2%	29.1 µM [rising, single point]
